The record followed here is PubChem BioAssay AID2685 (National Center for Advancing Translational Sciences (NCATS), 2010).

The nature of the experiment: qHTS Assay for Lipid Storage Modulators in Drosophila S3 Cells.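 As to cell number change: cells counted by Cell Tracker Red CMTPX staining in the red channel.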 The note with it: BODIPY lipid droplet fluorescence, 18-24 h; for cell number change: measured here: cell count max response, cells fed with added oleic acid. Put shortly:
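Laser-scanning cytometry quantifies lipid droplet accumulation (500–530 nm total intensity; droplet/cell object ratio) in oleic acid-fed (400 uM added) Drosophila S3 cells treated with a concentration series. 20 uM Triacsin C defined 100% inhibition.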
(In general: qHTS replaces the single test concentration by a dilution series.)

The mark [1] stands for this setting: measured here: cell number channel AC50, cells fed with added oleic acid.
The mark [2] stands for this setting: measured here: lipid fluorescence (Fed channel) AC50, cells fed with added oleic acid.

The list shows a part of the results. Further columns of the screen follow, without active or inactive calls. The list favours compounds with an active or inconclusive main result. Potencies come from curve fits of mixed quality, noted in brackets.

The AC50 is the concentration giving half of the maximal activity seen. A lower AC50 goes with activity at low concentration. Regarding `O=C(CN(Cc1ccco1)C(=O)c1cccc(F)c1)Nc1ccccc1C(F)(F)F`, the cell number change turned out to be 25.2%. Also, the AC50 under setting [1] was 1.64 µM [falling, single point]. `COc1cc(C(C[N+](=O)[O-])c2c(N)n(C)c(=O)n(C)c2=O)ccc1O` (stereo unspecified): the cell number change was -93.4%. The AC50 under setting [1] was 29.1 µM [falling, single point]. In addition, the AC50 under setting [2] was 29.1 µM [falling, single point].

On to `Cc1onc(-c2ccccc2)c1C1=N/C(=C\c2ccccc2F)C(=O)O1`, for which the cell number change is 10%. The AC50 under setting [1] was 0.146 µM [rising, partial curve, poor fit]. Besides, under setting [2], the AC50 is 0.13 µM [rising, full curve, poor fit]. In the case of `Cc1c(C)n(C)c2ccc(C(=O)N3CCN(c4ccccn4)CC3)cc12`, the cell number change turned out to be 2.13%. For the same molecule, under setting [2], the AC50 was 0.651 µM [rising, full curve, poor fit]. In the case of `Cc1ccnc(NC(=O)c2cccs2)c1`, the cell number change was -5.94%. In the case of `Cn1c(CCC(=O)Nc2cc(S(C)(=O)=O)ccc2Cl)nc2cc(S(=O)(=O)N3CCOCC3)ccc21`, the AC50 under setting [1] was 4.61 µM [falling, single point]. For the molecule `COc1cc(OC)c(C2=NOC(C(=O)N3CCc4ccccc4C3)C2)cc1Cl` (stereo unspecified), the AC50 reads like this: under setting [1], 0.58 µM [rising, single point]; under setting [2], 0.259 µM [rising, partial curve, poor fit]. As for `Cn1c(C(=O)N2CCN(Cc3ccc4c(c3)OCO4)CC2)cc2c(=O)n(C)c3ccccc3c21`, the cell number change worked out at 6.78%. Besides, under setting [2], the AC50 was 16.4 µM [rising, partial curve, poor fit].

As to `CCN(CC)c1ccc(S(=O)(=O)N2CCOCC2)cc1NC(=O)COC(=O)c1cccnc1SC`, under setting [2], the AC50 is 29.1 µM [falling, single point]. As to `COc1cc(OC)cc(C(=O)OCc2ccc([N+](=O)[O-])cc2)c1`, the cell number change is -18.9%. As to `O=C(O)c1ccc(NCc2nc3ccccc3n2Cc2ccccc2F)cc1`, the cell number change came out at 4.59%. In addition, the AC50 under setting [2] is 6.51 µM [falling, single point].

As for `CCNC(=S)Nc1ccc(Cl)c(C(F)(F)F)c1`, the cell number change was -16.4%. The AC50 under setting [2] was 29.1 µM [falling, single point]. Turning to `CCOC(=O)C1CCCN(C(=O)CCNS(=O)(=O)c2cc(Br)cnc2N)C1` (stereo unspecified), the cell number change turned out to be 73.9%. Moreover, the AC50 under setting [1] is 18.4 µM [rising, partial curve]. In addition, the AC50 under setting [2] was 20.6 µM [rising, single point]. `Cc1ccc(NC(=O)c2cccc3cccnc23)cc1`: the cell number change was 0.435%. The AC50 under setting [2] is 29.1 µM [rising, single point].

With `CC(C)COc1cccc(-c2cc(C(=O)Nc3ccon3)c3ccccc3n2)c1`, the cell number change worked out at 6.76%. The concentration at half-maximal activity (AC50) under setting [2] is 29.1 µM [falling, single point]. As for `COc1cc(C(=O)CSc2nncn2C)cc(OC)c1OC`, the cell number change was 16.6%. `CCOc1ccc(OCC)c(NC(=O)CSc2nnc(-c3cccnc3)o2)c1`: the cell number change was -3.31%. Also, the AC50 under setting [2] is 0.82 µM [rising, single point]. With `N#C/C(=C\c1ccc2c(c1)OCCO2)C(=O)NC1CCCCC1`, the cell number change was 51.5%. Further, under setting [1], the AC50 was 29.1 µM [rising, single point]. In addition, under setting [2], the AC50 is 2.31 µM [falling, partial curve]. On to `O=S(=O)(NC1CC2CCC1C2)c1ccc(Br)cc1` (stereo unspecified), for which the cell number change is -12.4%. The AC50 under setting [2] was 3.66 µM [rising, partial curve]. In the case of `Cc1ccc(-c2cc(=O)c3cc(F)ccc3[nH]2)cc1`, the AC50 under setting [2] was 3.66 µM [falling, full curve, poor fit]. With `CC(CN1CCCCC1)OC(=O)/C=C/c1ccccc1` (stereo unspecified), the cell number change is -32.8%. Under setting [1], the AC50 was 10.3 µM [falling, single point]. Also, the AC50 under setting [2] is 7.31 µM [falling, partial curve].

Take `COC(=O)c1sc(NC(=O)COc2ccccc2C)nc1C`: the cell number change was -0.331%. Consider `COc1ccc(S(=O)(=O)N2CCCC2)cc1Br`, for which the cell number change was -19.9%. In addition, the AC50 under setting [2] was 29.1 µM [rising, single point]. With `CC(CCc1ccccc1)NC(=O)COC(=O)c1cc(NS(=O)(=O)c2ccc(Cl)c([N+](=O)[O-])c2)ccc1O` (stereo unspecified), the cell number change was -15.4%. For the same molecule, the AC50 under setting [2] is 0.184 µM [falling, partial curve, poor fit]. Take `COc1ccc(CCNC(=O)COC(=O)c2ccc(OC)cc2OC)cc1`: the cell number change came out at 84.5%. In addition, the AC50 under setting [1] was 14.6 µM [rising, partial curve]. For `COc1cc(C(=O)CSc2nccn2C)cc(OC)c1OC`, the cell number change was 13.1%. In addition, the AC50 under setting [2] was 29.1 µM [rising, single point]. Take `CC(=O)C1=C(C)NC(C)=C(C(C)=O)C1c1cccs1`: the cell number change stood at 58.7%. Also, the AC50 under setting [1] was 29.1 µM [rising, single point]. On to `CCCCOc1ccc(C(=O)NCC(=O)N2CC(C)CC(C)C2)cc1` (stereo unspecified), for which the cell number change is -27.3%. Further, under setting [2], the AC50 is 0.184 µM [falling, single point]. Turning to `CCN(CC)CCNC(=O)c1ccc(NC(=O)Cc2cccc3ccccc23)cc1`, the cell number change was -1.25%. For the same molecule, the AC50 under setting [2] is 0.00461 µM [rising, full curve, poor fit]. Consider `CCCCCC(=O)c1c(C)[nH]c(C(=O)OCC)c1C`, for which the cell number change is -39.5%. For the same molecule, under setting [1], the AC50 was 16.4 µM [falling, single point]. The concentration at half-maximal activity (AC50) under setting [2] is 29.1 µM [falling, single point]. For the molecule `Cn1c(NC(=O)CCc2ccccc2)cc(=O)n(C)c1=O`, the cell number change was -11.8%. The AC50 under setting [1] is 1.84 µM [rising, partial curve]. The AC50 under setting [2] is 1.84 µM [rising, partial curve].

For the molecule `Cn1c(=O)n(Cc2ccccc2)c(=O)c2c1nc1n2CCCN1CCc1ccccc1`, the cell number change was 31.7%. Moreover, the AC50 under setting [1] was 29.1 µM [rising, single point]. Further, the AC50 under setting [2] is 4.61 µM [rising, partial curve]. As for `COc1ccc(NC(=O)CCCn2cnc3ccccc3c2=O)c(OC)c1`, the cell number change was -14.6%. `Cn1c(-c2ccc(-c3ccccc3)cc2)c[nH]c1=S`: the cell number change was -31.4%. Further, under setting [1], the AC50 was 14.6 µM [falling, partial curve, poor fit]. Further, the AC50 under setting [2] was 8.2 µM [falling, partial curve, poor fit]. As to `COc1ccc(OCC(=O)Nc2ccccc2C(=O)NC(C)C)cc1`, the cell number change amounted to 16.2%. For `Cc1cc(C)nc(SCC(=O)Nc2ncc(Cc3cccc(Cl)c3)s2)n1`, the cell number change was -37.3%. Besides, the concentration at half-maximal activity (AC50) under setting [1] was 29.1 µM [falling, single point]. In addition, under setting [2], the AC50 is 32.6 µM [falling, partial curve, poor fit]. On to `COCCNC(=O)NC(=O)CN1CCN(C(c2ccccc2)c2ccccc2)CC1`, for which the cell number change was found to be 32.7%. On to `CCCc1ccc2c(N)c(C#N)sc2n1`, for which the cell number change is -0.307%. Moreover, the AC50 under setting [2] is 6.51 µM [rising, single point]. For `CCc1ccc(OC(C)c2nnc(SCC(=O)Nc3ncccc3C)n2C)cc1` (stereo unspecified), the cell number change was 178%. In addition, the AC50 under setting [1] was 23.1 µM [rising, partial curve]. The half-maximal activity concentration (AC50) under setting [2] was 2.31 µM [rising, full curve, poor fit]. For `CCCn1c(=O)c(C(=O)NCc2ccccc2Cl)c(O)c2ccccc21`, the cell number change came out at 4.01%. In addition, the AC50 under setting [2] was 29.1 µM [rising, single point]. For `Cc1cccc2cc(CN(Cc3ccco3)C(=O)N3CCCC3)c(=O)[nH]c12`, the cell number change worked out at 10.3%. Moreover, the AC50 under setting [2] is 1.16 µM [rising, full curve]. For `CCCNS(=O)(=O)c1ccc(OCC(=O)N(C)Cc2ccccc2)cc1`, the cell number change was determined as 6.55%. Same read-out and setting: with `CCOc1ccc(N(CC(=O)NC2CCCCC2)C(=O)CCC(=O)Nc2cc(C)ccn2)cc1` the figure was 6.25%.

As for `CNC(=O)COC(=O)c1cc2c(s1)CCCC2`, the cell number change came to 22%. The AC50 under setting [2] is 0.13 µM [falling, full curve, poor fit]. In the case of `COc1ccc2c(c1OC)C(=O)c1ccccc1C2=O`, the cell number change is 29.8%. Moreover, the AC50 under setting [2] was 6.51 µM [rising, partial curve, poor fit]. As for `CCN1C(=O)[C@@H]2[C@@H](c3ccc(-c4ccc(Cl)c(Cl)c4)c(OC)c3)N3CCC[C@@]3(C(=O)OC)[C@@H]2C1=O`, the cell number change was -6.01%. Moreover, the AC50 under setting [1] is 6.51 µM [falling, single point]. `COCCn1cc(C(=O)N2CCC(C)CC2)c2c3ccccc3n(C)c2c1=O`: the cell number change is -19.6%. The AC50 under setting [2] is 7.31 µM [falling, partial curve]. On to `CCC(=O)N1CCN(c2nc(C)nc3sc(C)c(C)c23)CC1`, for which the cell number change is 28.2%. Moreover, under setting [2], the AC50 is 8.2 µM [rising, partial curve]. For `CN1CCN(S(=O)(=O)c2ccc(Sc3nc4ccccc4[nH]3)c3nsnc23)CC1`, the cell number change was found to be 6.75%. Besides, the AC50 under setting [2] is 8.2 µM [rising, partial curve, poor fit]. For the molecule `CCCOc1ccc(N2C(=O)CC(N3CCN(CCN=CC4C(=O)CC(C)(C)CC4=O)CC3)C2=O)cc1` (stereo unspecified), the cell number change is -15.6%. In addition, under setting [2], the AC50 was 14.6 µM [falling, single point].

For the molecule `O=C(O)CCNC(=O)c1ccccc1`, the cell number change came out at 23.4%. Also, the AC50 under setting [1] was 3.66 µM [rising, full curve, poor fit]. Further, under setting [2], the AC50 is 9.2 µM [falling, partial curve]. Turning to `CCn1cc(-c2ccnc3cc(C(=O)O)nn23)c(C)n1`, the cell number change came to 25.3%. The AC50 under setting [2] is 2.31 µM [falling, partial curve]. In the case of `CCNC(=S)N(Cc1ccco1)Cc1cc2cc3c(cc2[nH]c1=O)OCCO3`, the cell number change is 18.6%. Also, the AC50 under setting [2] is 9.2 µM [rising, single point]. On to `CC1CC(C)CN(C(=O)CNC(=O)c2sc3ccccc3c2Cl)C1` (stereo unspecified), for which the AC50 under setting [2] was 1.3 µM [falling, full curve]. Regarding `O=C(NCc1cccnc1)Nc1cc(Cl)cc(Cl)c1`, the cell number change was determined as 34.4%. Moreover, the AC50 under setting [2] was 10 µM [falling, partial curve]. With `CSc1nc2cc3c(cc2n1C(=O)c1ccc(C)cc1)OCCO3`, the cell number change is -14.1%. Further, under setting [2], the AC50 is 32.6 µM [falling, partial curve, poor fit]. As to `O=C(NC1CCCc2c1cnn2-c1ccc(F)cc1F)c1ccccn1` (stereo unspecified), the cell number change was -27.9%. The AC50 under setting [1] was 0.013 µM [falling, full curve]. Also, the AC50 under setting [2] was 0.00517 µM [falling, full curve]. On to `O=C(CN(c1cccc(C(F)(F)F)c1)S(=O)(=O)c1ccccc1)N1CCOCC1`, for which the cell number change was -8.54%. With `COc1cccc(-n2c(SCC(=O)N3CCc4ccccc43)nnc2-c2c[nH]c3ccccc23)c1`, under setting [2], the AC50 was 0.58 µM [rising, partial curve, poor fit].
